PubChem BioAssay AID652243 – Drosophila RNAi Screening Center, 2013
Screen: 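Fly regulators of androgen-dependent reporter output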 (primary screen). Cell system: Drosophila S2R+ cells. Reagent: long dsRNA against Drosophila genes. Duration: 72 h (48 h, then 24 h hormone). Conditions: synthetic androgen R1881 at 10 nM for 24 h. Measured: 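Firefly light from an androgen-responsive reporter and Renilla control light per well, raw and unnormalised, for each of two replicates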. Direction: firefly reporter light: higher = more light from androgen-responsive reporter; Renilla control light: higher = more constitutive control signal (cell number, transfection). Call rule: 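Across duplicate plates, a knock-down whose log firefly/Renilla ratio shifted a set fold down or up from the GFP/LacZ control mean was a hit; the downward cut appears as both 1.5 and 3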. Meaning of the calls: active = hit: reporter lowered or raised; inactive = no hit.
The deposit covers about 24,000 reagents; this is a random part of those with a known target gene and a result. Over the whole deposit, 246 (1%) are marked active. 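Plates not normalised; calls are printed but the firefly/Renilla ratio behind them is not deposited; fold cut for lowering reported inconsistently.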 Raw values vary from plate to plate and are shown uncorrected. Not stated in the record: the amount of reagent.

| target | dsRNA | firefly reporter light, replicate 1 | firefly reporter light, replicate 2 | Renilla control light, replicate 1 | Renilla control light, replicate 2 | outcome |
| --- | --- | --- | --- | --- | --- | --- |
| Elal | DRSC16662 | 1.44e5 | 1.21e5 | 7.16e5 | 6.08e5 | inactive |
| CG7080 | DRSC16193 | 46422 | 51230 | 6.67e5 | 7.60e5 | inactive |
| CG7080 | DRSC27850 | 1.47e6 | 8.93e5 | 5.32e6 | 2.20e6 | inactive |
| tko | DRSC18844 | 4.64e5 | 3.93e5 | 3.79e6 | 2.64e6 | inactive |
| tko | DRSC27125 | 2.10e5 | 2.92e5 | 7.62e5 | 5.43e5 | inactive |
| CG13154 | DRSC06279 | 2.15e5 | 1.44e5 | 1.27e6 | 1.12e6 | inactive |
| spirit | DRSC18202 | 1.30e5 | 53628 | 3.90e5 | 5.42e5 | inactive |
| spirit | DRSC25748 | 7.69e5 | 6.07e5 | 7.79e5 | 6.06e5 | inactive |
| CG11811 | DRSC09862 | 1.83e5 | 2.06e5 | 1.89e6 | 1.58e6 | inactive |
| CG11811 | DRSC36893 | – | – | – | – | inactive |
| Lon | DRSC11049 | 57576 | 43535 | 3.88e5 | 2.27e5 | inactive |
| Lon | DRSC26015 | 3.02e5 | 3.74e5 | 1.03e6 | 9.92e5 | inactive |
| Cog8 | DRSC02961 | 1.01e6 | 9.52e5 | 1.15e6 | 1.32e6 | inactive |
| Galphaq | DRSC07432 | 1.32e6 | 1.29e6 | 1.99e6 | 1.49e6 | inactive |
| Galphaq | DRSC25341 | 6.31e5 | 4.40e5 | 4.16e5 | 5.96e5 | inactive |
| Vago | DRSC19833 | 5.75e5 | 6.63e5 | 3.59e6 | 4.12e6 | inactive |
| Vago | DRSC26320 | 3.31e5 | 3.29e5 | 6.92e5 | 6.63e5 | inactive |
| Sdr | DRSC15517 | 77647 | 1.04e5 | 5.35e5 | 4.30e5 | inactive |
| Sdr | DRSC36929 | – | – | – | – | inactive |
| Sdr | DRSC36930 | – | – | – | – | inactive |
| CAH6 | DRSC15505 | 2.18e5 | 2.04e5 | 2.58e6 | 2.78e6 | inactive |

The list goes on (2 carried over from the part before).
| target | dsRNA | firefly reporter light, replicate 1 | firefly reporter light, replicate 2 | Renilla control light, replicate 1 | Renilla control light, replicate 2 | outcome |
| --- | --- | --- | --- | --- | --- | --- |
| Sdr | DRSC36930 | – | – | – | – | inactive |
| CAH6 | DRSC15505 | 2.18e5 | 2.04e5 | 2.58e6 | 2.78e6 | inactive |
| CG33626 | DRSC37839 | 4.05e5 | 3.32e5 | 1.11e6 | 8.42e5 | inactive |
| CG5024 | DRSC15698 | 91685 | 1.63e5 | 2.02e6 | 1.93e6 | inactive |
| NaCP60E | DRSC04307 | 3.79e5 | 5.03e5 | 1.14e6 | 1.82e6 | inactive |
| NaCP60E | DRSC21351 | 7.32e5 | 8.00e5 | 2.74e6 | 2.38e6 | inactive |
| NaCP60E | DRSC26120 | 2.49e5 | 3.47e5 | 5.34e5 | 5.50e5 | inactive |
| Septin4 | DRSC20205 | 1.07e5 | 1.06e5 | 7.27e5 | 8.18e5 | inactive |
| Septin4 | DRSC25409 | 1.21e6 | 1.35e6 | 1.47e6 | 1.45e6 | inactive |
| NimB2 | DRSC22645 | 8.61e5 | 6.24e5 | 2.02e6 | 1.87e6 | inactive |
| Cpsf5 | DRSC10374 | 1.27e6 | 1.30e6 | 1.75e6 | 1.85e6 | inactive |
| Cpsf5 | DRSC27451 | 1.71e5 | 2.98e5 | 5.24e5 | 6.74e5 | inactive |
| PolH | DRSC11800 | 70126 | 57870 | 4.44e5 | 3.95e5 | inactive |
| dod | DRSC20577 | 1.77e5 | 1.61e5 | 6.79e5 | 4.01e5 | inactive |
| dod | DRSC26403 | 4.40e5 | 4.15e5 | 9.32e5 | 5.68e5 | inactive |
| hop | DRSC20340 | 4.95e5 | 4.38e5 | 2.65e6 | 2.77e6 | inactive |
| hop | DRSC23334 | 6.08e5 | 6.56e5 | 1.20e5 | 1.49e5 | inactive |
| hop | DRSC26551 | 2.66e5 | 2.51e5 | 5.49e5 | 2.36e5 | inactive |
| PGRP-LC | DRSC08980 | 1.36e5 | 1.13e5 | 3.92e5 | 4.33e5 | inactive |
| PGRP-LC | DRSC10416 | 2.44e5 | 1.79e5 | 3.09e6 | 2.21e6 | inactive |
| PGRP-LC | DRSC10417 | 1.23e5 | 1.20e5 | 1.53e6 | 1.33e6 | inactive |
| PGRP-LC | DRSC28556 | 2.76e5 | 3.09e5 | 9.07e5 | 1.59e6 | inactive |
